We go through eight substances from publication doi:10.1101/2024.03.20.585881.

By UniProt entry, the sequences of proteins in these tests, tags left out.
UniProt P25054: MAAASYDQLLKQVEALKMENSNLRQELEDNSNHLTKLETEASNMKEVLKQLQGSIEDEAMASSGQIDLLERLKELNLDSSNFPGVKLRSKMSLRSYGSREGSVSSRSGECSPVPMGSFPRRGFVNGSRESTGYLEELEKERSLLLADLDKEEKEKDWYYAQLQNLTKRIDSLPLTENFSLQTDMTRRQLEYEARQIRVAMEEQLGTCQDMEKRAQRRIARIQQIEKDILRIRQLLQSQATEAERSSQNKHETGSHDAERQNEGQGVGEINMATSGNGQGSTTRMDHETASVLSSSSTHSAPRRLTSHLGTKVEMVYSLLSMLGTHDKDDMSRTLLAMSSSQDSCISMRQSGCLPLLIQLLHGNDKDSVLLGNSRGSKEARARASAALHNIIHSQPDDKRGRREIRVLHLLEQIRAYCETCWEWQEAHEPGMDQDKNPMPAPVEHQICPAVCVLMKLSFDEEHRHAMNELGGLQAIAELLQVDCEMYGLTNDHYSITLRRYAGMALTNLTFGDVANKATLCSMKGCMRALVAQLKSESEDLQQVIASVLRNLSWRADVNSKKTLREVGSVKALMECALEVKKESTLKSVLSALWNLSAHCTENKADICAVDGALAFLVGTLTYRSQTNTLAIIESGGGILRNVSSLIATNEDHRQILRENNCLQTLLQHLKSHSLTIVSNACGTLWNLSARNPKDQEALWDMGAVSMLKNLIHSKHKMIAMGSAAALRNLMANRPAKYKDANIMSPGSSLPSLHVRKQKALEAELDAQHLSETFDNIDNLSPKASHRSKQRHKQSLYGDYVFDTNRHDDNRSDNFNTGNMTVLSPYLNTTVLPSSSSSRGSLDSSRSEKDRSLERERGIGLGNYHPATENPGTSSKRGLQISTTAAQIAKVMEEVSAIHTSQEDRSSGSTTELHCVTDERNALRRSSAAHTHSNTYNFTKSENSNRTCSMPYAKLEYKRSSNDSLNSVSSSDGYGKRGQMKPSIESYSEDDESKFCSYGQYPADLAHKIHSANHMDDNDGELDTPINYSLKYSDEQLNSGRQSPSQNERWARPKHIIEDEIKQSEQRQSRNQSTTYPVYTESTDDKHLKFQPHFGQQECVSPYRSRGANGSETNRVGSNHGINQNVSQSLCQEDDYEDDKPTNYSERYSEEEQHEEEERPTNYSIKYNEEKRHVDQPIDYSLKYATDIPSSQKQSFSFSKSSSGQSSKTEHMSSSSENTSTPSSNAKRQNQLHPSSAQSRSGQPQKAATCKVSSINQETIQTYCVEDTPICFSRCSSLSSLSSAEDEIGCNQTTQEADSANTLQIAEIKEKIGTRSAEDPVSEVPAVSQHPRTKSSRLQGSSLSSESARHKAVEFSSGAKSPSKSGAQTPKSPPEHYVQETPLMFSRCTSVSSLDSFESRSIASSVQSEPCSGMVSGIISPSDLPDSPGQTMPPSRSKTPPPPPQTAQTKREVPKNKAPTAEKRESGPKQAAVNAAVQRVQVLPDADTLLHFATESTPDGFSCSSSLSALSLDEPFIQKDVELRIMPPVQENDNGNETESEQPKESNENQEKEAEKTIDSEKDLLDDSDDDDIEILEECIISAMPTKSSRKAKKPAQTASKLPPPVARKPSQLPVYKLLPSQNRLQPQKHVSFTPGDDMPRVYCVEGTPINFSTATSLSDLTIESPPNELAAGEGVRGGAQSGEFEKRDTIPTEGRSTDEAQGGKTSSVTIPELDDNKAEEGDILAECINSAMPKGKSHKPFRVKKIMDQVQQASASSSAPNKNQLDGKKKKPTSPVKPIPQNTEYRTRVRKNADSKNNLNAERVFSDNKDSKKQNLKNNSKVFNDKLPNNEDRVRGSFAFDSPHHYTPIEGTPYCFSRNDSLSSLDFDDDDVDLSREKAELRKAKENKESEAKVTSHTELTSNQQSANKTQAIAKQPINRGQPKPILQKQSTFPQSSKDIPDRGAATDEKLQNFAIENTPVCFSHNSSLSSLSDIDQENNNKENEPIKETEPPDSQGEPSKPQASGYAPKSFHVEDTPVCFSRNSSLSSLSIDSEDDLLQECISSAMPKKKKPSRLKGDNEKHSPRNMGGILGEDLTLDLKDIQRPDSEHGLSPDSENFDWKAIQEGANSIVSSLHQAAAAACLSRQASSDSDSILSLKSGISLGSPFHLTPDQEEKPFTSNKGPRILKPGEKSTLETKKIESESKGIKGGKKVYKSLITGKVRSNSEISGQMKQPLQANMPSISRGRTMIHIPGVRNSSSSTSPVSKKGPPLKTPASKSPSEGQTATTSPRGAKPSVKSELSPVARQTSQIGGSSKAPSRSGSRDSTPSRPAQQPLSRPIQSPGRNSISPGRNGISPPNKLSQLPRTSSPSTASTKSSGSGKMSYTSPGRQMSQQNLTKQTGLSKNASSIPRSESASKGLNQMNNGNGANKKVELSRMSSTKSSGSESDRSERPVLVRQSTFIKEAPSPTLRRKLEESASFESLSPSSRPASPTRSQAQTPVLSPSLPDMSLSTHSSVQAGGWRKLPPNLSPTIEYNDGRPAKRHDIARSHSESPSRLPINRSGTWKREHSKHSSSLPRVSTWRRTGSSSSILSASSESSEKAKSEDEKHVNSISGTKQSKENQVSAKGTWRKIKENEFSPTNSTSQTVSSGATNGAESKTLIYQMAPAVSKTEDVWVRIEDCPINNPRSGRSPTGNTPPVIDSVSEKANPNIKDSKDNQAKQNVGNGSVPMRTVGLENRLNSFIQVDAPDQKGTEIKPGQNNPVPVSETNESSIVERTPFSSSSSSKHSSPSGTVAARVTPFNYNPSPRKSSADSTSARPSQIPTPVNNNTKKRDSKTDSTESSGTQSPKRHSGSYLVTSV
UniProt Q5T5U3: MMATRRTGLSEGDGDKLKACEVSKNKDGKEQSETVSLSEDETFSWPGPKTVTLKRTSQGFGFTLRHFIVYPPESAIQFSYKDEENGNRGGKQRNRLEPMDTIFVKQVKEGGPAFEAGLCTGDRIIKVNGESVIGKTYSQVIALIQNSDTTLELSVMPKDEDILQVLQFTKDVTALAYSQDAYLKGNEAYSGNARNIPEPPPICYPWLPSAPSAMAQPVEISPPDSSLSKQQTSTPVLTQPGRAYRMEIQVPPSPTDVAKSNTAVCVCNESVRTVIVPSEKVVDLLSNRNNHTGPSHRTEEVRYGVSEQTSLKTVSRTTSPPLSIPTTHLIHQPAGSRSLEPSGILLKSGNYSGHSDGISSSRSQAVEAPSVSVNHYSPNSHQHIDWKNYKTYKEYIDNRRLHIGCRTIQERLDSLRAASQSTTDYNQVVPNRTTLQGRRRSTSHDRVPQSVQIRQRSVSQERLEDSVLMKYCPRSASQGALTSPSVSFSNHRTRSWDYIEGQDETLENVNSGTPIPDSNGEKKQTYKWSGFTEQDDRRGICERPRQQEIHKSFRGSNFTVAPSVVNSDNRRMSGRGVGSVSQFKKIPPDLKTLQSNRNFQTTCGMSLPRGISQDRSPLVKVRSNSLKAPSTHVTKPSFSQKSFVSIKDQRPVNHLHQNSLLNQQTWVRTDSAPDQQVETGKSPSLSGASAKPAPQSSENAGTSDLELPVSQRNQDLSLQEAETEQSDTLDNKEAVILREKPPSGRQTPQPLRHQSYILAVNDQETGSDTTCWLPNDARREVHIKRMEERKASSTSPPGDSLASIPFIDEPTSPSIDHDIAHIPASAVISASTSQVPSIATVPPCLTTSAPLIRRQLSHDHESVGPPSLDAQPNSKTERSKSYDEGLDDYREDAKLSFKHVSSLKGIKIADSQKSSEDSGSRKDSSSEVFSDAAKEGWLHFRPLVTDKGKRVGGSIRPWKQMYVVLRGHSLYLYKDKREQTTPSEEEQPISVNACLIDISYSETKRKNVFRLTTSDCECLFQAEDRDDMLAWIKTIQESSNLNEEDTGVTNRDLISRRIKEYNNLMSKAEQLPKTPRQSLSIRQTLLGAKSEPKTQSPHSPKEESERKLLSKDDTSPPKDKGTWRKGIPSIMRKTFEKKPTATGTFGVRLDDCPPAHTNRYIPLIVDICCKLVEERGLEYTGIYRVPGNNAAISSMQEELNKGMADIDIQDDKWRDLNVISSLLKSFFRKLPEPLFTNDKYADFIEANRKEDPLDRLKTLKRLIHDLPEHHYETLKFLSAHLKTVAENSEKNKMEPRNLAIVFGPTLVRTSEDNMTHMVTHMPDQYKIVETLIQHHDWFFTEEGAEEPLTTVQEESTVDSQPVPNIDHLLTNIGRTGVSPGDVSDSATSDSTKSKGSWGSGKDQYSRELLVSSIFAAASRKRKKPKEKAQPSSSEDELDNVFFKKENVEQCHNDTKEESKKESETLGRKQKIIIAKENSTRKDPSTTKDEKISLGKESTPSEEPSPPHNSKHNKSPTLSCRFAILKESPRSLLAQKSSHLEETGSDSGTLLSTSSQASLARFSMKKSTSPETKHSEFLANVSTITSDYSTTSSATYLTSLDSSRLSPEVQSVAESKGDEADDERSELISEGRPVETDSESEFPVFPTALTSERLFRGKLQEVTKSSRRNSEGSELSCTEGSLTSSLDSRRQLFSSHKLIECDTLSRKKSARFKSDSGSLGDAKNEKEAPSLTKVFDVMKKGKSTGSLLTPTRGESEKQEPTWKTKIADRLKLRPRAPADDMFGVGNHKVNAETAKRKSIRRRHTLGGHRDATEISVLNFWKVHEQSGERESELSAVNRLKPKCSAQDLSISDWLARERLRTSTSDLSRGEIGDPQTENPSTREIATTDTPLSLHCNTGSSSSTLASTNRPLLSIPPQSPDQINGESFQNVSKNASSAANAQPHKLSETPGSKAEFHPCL
UniProt P49840: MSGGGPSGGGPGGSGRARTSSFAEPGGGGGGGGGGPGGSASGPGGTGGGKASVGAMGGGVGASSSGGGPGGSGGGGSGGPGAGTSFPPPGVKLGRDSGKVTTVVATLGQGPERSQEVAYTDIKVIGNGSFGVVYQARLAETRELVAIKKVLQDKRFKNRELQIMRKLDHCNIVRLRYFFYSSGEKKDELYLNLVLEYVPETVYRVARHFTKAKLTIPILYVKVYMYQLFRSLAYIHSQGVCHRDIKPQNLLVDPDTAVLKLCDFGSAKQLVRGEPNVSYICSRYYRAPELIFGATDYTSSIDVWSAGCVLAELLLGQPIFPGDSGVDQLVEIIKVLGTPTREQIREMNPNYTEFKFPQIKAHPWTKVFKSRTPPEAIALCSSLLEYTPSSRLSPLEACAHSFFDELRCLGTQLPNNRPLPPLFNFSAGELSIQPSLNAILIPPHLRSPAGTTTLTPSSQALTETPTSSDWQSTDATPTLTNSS
UniProt P35221: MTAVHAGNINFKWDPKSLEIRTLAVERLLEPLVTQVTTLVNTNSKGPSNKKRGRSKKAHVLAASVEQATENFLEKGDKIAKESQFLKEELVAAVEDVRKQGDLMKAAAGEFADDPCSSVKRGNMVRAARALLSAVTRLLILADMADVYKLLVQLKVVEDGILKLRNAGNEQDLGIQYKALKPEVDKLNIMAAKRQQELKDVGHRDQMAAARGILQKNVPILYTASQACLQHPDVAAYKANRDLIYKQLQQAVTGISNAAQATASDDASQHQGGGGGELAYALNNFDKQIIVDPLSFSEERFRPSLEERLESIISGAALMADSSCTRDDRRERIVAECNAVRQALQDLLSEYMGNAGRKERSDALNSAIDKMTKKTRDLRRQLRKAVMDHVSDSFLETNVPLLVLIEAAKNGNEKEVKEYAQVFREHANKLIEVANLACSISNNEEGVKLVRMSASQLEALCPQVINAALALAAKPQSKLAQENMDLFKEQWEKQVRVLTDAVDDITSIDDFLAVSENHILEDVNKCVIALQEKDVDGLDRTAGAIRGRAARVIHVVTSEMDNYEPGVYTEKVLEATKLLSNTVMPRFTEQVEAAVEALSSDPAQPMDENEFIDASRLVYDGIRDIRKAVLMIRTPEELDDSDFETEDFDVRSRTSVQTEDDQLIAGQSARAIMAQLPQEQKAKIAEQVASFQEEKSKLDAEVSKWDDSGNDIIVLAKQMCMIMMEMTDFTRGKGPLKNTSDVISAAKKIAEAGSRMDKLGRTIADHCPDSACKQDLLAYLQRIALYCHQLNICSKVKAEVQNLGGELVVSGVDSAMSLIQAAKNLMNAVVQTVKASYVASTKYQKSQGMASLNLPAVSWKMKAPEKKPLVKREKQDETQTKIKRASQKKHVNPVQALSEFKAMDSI

These are yes or no findings as the source states them, for the method shown. In cells and extracts the contact can be indirect. These calls come from enrichment with a bait or labelling near it, and not all partners need be listed.

What all share (assay): affinity purification with mass spectrometry
The target in one assay is eGFP-Axin1 (UniProt O15169).
The target in the next assay is 3xFLAG-eGFP-Axin1 (UniProt O15169).
The target in assay [1] is 3xFLAG-mScarlet-APC (human (endogenous in HEK293)) (UniProt P25054).

Regarding ARHGAP21 (from UniProt Q5T5U3 1-1958), the binding result in the assay with eGFP-Axin1 and with 3xFLAG-eGFP-Axin1 was “binds” in each case.

As to ARMC8 (from UniProt Q8IUR7 1-673), the binding entry in assay [1] is “binds”.

With “Axin1 (endogenous) (from UniProt O15169 1-862)”, in assay [1], the binding result is “binds”.

Turning to CTBP2 (from UniProt P56545 1-445), the binding result with 3xFLAG-eGFP-Axin1 is reported as “binds”.

Turning to “GSK3α (from UniProt P49840 1-483) (enzyme)”, the binding result in the assay with eGFP-Axin1 and with 3xFLAG-eGFP-Axin1 was “binds” each time.

On to α-catenin (from UniProt P35221 1-906), for which the binding entry with eGFP-Axin1 and in the assay with 3xFLAG-eGFP-Axin1 was “binds” throughout.

β-catenin (from UniProt P35222 1-781): the binding entry with eGFP-Axin1 and with 3xFLAG-eGFP-Axin1 was “binds” each time.

As to “βTrCP (FBXW11) (from UniProt Q9UKB1 1-542)”, the binding result with eGFP-Axin1 and with 3xFLAG-eGFP-Axin1 was “binds” in each case.
